Assay results from the supplement of paper PMC6411743.
± gives the standard deviation of the averaged measurements. This is a selection; strong and weak results do not stand in their true shares.

By UniProt entry, the sequences of proteins in these tests, tags left out. Where a name states a change or a piece, a line headed by the entry shows the natural chain unless it says otherwise.
UniProt P29597: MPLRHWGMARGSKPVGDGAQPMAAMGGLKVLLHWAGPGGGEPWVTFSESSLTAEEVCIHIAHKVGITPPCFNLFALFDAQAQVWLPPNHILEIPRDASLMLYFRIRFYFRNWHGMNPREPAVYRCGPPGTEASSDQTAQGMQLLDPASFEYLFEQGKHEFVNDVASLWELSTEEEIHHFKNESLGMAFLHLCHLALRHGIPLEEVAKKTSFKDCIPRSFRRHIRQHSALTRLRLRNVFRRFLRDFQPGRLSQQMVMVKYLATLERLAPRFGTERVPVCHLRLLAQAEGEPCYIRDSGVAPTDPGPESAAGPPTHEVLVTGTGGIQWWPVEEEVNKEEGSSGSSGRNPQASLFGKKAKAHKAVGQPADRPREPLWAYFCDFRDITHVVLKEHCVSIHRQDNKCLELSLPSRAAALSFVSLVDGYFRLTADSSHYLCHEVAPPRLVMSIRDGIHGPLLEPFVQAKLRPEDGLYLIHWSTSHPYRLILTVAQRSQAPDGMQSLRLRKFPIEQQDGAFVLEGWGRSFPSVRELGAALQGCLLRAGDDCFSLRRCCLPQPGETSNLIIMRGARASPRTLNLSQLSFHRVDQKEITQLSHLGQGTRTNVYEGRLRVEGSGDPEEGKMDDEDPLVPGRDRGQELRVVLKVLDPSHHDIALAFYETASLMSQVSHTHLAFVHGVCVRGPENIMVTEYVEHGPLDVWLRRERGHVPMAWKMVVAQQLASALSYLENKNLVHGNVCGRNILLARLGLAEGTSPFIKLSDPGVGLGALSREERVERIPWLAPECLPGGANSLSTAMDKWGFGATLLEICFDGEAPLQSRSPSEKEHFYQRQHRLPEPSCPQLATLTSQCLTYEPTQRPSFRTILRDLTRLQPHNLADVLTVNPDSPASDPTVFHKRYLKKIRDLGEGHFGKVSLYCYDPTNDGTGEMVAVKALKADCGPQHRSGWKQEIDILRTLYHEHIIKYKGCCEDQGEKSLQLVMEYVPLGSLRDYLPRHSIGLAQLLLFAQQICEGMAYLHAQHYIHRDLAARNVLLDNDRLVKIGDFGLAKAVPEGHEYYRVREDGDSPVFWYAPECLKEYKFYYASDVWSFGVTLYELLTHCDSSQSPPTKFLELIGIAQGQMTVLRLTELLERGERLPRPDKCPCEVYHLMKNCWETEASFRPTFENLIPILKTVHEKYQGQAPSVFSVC
UniProt Q9Y2Z9: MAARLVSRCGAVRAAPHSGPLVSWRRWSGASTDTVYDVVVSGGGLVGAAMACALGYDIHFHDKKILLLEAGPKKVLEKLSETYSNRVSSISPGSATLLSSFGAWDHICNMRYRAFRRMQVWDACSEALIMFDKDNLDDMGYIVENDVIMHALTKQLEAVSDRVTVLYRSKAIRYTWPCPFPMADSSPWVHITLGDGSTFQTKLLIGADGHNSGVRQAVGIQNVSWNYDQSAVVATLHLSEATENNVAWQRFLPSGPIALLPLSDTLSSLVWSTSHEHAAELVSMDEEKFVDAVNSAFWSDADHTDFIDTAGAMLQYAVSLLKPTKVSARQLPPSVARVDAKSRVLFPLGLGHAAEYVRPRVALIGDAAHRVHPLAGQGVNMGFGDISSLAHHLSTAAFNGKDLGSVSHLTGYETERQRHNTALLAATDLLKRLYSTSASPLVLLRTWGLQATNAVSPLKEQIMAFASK
UniProt O75251, whole entry: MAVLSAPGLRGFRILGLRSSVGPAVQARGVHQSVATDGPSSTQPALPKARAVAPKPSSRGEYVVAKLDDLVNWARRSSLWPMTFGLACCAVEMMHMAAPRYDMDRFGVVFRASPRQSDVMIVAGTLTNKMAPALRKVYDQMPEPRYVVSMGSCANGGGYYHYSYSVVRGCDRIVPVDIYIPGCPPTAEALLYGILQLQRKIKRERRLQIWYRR
UniProt Q9Y6C9: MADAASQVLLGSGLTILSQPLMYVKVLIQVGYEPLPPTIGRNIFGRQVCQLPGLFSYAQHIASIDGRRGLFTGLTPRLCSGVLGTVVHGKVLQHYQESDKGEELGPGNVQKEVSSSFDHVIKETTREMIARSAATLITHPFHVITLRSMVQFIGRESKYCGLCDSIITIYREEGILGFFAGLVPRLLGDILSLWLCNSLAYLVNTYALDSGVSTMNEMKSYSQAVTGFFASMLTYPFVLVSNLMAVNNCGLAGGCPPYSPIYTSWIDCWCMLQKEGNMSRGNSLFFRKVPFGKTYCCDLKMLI
UniProt Q9H3S4: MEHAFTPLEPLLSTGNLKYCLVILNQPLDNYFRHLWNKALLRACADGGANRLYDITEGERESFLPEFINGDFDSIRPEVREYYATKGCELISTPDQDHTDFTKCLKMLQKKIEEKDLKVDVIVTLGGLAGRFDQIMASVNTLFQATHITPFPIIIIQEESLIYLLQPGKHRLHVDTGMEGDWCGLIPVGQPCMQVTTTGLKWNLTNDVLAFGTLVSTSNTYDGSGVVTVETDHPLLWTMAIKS
UniProt Q9UKU0: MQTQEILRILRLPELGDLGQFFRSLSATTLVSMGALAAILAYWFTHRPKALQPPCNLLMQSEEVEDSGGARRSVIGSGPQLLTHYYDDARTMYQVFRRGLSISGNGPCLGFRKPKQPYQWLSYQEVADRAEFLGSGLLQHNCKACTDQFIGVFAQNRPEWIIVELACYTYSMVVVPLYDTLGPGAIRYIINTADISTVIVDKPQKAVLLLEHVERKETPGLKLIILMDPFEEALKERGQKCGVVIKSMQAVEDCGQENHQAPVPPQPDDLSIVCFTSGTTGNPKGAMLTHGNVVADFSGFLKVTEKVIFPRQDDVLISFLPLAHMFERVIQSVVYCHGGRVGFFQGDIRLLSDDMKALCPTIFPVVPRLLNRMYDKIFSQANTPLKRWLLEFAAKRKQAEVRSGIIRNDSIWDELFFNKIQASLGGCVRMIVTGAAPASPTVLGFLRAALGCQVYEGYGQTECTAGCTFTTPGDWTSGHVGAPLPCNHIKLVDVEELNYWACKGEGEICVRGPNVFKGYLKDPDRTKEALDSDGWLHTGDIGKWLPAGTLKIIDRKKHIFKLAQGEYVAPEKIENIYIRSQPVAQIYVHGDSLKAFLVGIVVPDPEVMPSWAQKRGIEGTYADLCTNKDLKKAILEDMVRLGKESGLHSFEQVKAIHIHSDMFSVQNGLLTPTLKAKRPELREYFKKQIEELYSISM
UniProt O43493: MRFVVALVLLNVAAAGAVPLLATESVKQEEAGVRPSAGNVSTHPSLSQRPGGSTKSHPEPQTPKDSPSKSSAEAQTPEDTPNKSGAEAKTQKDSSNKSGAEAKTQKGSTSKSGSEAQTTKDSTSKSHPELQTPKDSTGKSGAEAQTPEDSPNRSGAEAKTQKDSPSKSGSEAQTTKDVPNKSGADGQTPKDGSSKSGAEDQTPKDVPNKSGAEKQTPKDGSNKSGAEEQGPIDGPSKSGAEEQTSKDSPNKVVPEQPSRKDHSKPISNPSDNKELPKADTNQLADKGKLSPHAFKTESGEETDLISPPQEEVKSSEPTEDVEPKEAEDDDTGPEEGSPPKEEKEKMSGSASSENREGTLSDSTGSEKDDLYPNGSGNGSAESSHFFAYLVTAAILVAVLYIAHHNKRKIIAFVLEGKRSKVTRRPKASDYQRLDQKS
UniProt Q15418, whole entry: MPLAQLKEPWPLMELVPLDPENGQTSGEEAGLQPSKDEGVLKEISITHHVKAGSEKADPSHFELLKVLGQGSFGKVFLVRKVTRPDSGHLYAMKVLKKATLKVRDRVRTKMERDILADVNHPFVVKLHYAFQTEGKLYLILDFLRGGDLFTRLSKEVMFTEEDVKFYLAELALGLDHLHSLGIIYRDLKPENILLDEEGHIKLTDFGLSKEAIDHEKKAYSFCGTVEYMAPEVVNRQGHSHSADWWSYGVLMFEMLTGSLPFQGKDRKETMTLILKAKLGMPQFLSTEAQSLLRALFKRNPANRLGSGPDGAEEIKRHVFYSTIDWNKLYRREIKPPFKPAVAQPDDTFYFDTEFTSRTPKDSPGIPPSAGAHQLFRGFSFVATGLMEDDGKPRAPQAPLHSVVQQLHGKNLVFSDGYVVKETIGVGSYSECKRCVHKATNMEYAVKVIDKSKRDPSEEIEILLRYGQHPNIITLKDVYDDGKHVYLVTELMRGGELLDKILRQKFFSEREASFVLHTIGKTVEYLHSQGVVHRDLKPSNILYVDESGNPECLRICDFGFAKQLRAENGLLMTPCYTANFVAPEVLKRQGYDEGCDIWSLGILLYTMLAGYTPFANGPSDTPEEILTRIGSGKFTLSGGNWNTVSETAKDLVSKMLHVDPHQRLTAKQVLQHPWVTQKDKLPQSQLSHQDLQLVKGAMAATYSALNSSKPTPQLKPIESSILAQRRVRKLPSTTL
UniProt Q13889: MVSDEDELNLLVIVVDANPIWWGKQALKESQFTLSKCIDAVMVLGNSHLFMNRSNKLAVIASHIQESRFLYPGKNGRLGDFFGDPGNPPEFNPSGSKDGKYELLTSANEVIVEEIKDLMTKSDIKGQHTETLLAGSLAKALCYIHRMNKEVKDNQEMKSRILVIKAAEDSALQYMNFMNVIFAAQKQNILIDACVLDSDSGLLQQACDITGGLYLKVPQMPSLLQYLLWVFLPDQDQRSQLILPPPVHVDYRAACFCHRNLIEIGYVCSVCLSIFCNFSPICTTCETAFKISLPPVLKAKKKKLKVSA
UniProt P61916: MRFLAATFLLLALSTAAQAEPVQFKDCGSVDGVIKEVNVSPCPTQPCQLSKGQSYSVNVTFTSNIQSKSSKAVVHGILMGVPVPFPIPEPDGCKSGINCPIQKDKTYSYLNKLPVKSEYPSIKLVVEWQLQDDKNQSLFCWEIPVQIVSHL
UniProt O95208: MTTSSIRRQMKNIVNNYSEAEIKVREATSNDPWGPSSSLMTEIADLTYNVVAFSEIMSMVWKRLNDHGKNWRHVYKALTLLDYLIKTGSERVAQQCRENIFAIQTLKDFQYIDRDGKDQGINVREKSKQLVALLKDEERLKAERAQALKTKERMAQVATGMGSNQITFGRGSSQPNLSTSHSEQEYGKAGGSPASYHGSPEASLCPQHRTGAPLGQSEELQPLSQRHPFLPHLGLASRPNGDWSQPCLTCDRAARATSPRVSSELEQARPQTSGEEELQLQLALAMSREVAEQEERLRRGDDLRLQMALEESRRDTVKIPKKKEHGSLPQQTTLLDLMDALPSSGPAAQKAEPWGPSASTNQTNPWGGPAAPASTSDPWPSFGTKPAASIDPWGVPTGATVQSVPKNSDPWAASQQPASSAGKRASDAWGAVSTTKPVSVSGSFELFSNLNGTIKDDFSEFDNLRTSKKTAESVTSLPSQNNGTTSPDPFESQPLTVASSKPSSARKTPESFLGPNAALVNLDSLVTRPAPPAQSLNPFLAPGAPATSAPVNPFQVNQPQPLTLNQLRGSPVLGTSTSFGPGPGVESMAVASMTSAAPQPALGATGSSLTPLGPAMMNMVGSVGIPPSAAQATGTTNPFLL

Compound: Nc1ncnc2c1ncn2[C@@H]1O[C@H](COP(=O)(O)OP(=O)(O)OP(=O)(O)O)[C@@H](O)[C@H]1O [adenosine triphosphate]
Experiment: NP40-soluble protein abundance relative to vehicle (solubility fold change) (ratio); higher = more soluble protein in presence of ATP
In short: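 Jurkat crude lysate (Dounce-homogenised) was treated with eight concentrations from 0.1 to 10 mM for 10 min at room temperature, then 3 min at 37 °C. It was solubilised with 0.8% NP40 and benzonase (60 min, 4 °C) and ultracentrifuged, and the supernatant was TMT-labelled for LC-MS/MS. Intensities were vsn-normalised, and the value is the fold change against the NP40-processed vehicle per replicate, from three independent experiments.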

| Target | NP40-soluble protein abundance (concentration: 1mM) | NP40-soluble protein abundance (concentration: 2mM) | NP40-soluble protein abundance (concentration: 4mM) | NP40-soluble protein abundance (concentration: 6mM) | NP40-soluble protein abundance (concentration: 8mM) | NP40-soluble protein abundance (concentration: 10mM) |
| --- | --- | --- | --- | --- | --- | --- |
| F8WA39 and related entries (UniProt Q13613) | 1.05 ± 0.019 | 1.02 ± 0.034 | 1.04 ± 0.034 | 0.998 ± 0.03 | 1.04 ± 0.018 | 1.01 ± 0.032 |
| F5H702 and related entries (UniProt Q96GC5) | 1.07 ± 0.078 | 0.99 ± 0.08 | 0.962 ± 0.12 | 1.01 ± 0.2 | 1.01 ± 0.17 | 1 ± 0.14 |
| E9PM19 and related entries (UniProt P29597) | 1.4 ± 0.019 | 1.31 ± 0.043 | 1.38 ± 0.044 | 1.31 ± 0.13 | 1.43 ± 0.12 | 1.39 ± 0.016 |
| G3XA86 and related entries (UniProt Q9Y2Z9) | 0.963 ± 0.051 | 1.04 ± 0.067 | 1.05 ± 0.093 | 0.951 ± 0.038 | 0.95 ± 0.038 | 1.03 ± 0.13 |
| F5GXJ1 and related entries (UniProt O75251) | 0.945 ± 0.091 | 0.917 ± 0.08 | 0.891 ± 0.05 | 0.839 ± 0.034 | 0.909 ± 0.1 | 0.92 ± 0.085 |
| E9PIE4 and related entries (UniProt Q9Y6C9) | 0.98 ± 0.081 | 0.947 ± 0.048 | 0.946 ± 0.03 | 0.877 ± 0.075 | 0.965 ± 0.026 | 0.939 ± 0.039 |
| F5GZG6 and related entries (UniProt Q9H3S4) | 0.966 ± 0.053 | 0.987 ± 0.072 | 0.98 ± 0.022 | 0.949 ± 0.058 | 0.978 ± 0.013 | 0.96 ± 0.1 |
| E7ERD7 and related entries (UniProt Q9UKU0) | 1.02 ± 0.041 | 1.04 ± 0.014 | 1.08 ± 0.05 | 1.01 ± 0.095 | 1.08 ± 0.1 | 1.02 ± 0.023 |
| F8W8W7 and related entries (UniProt O43493) | 0.994 ± 0.2 | 1.02 ± 0.4 | 1 ± 0.2 | 1.05 ± 0.23 | 0.942 ± 0.11 | 0.879 ± 0.26 |
| E9PGT3 and related entries (UniProt Q15418) | 1.04 ± 0.08 | 1.01 ± 0.073 | 0.985 ± 0.069 | 0.953 ± 0.11 | 1.01 ± 0.066 | 0.986 ± 0.064 |
| E9PR30 and related entries (UniProt P62861) | 0.899 ± 0.15 | 0.843 ± 0.15 | 0.806 ± 0.15 | 0.751 ± 0.21 | 0.669 ± 0.084 | 0.788 ± 0.13 |
| E9PLY5 and related entries (UniProt Q9UPN3+H3BQK9+H3BPE1+E9PLY5) | 1 ± 0.025 | 1 ± 0.022 | 0.996 ± 0.029 | 1.02 ± 0.034 | 0.982 ± 0.025 | 0.996 ± 0.025 |
| F5GWD3 and related entries (UniProt Q13889) | 1.07 ± 0.11 | 1.06 ± 0.058 | 1.05 ± 0.041 | 1.05 ± 0.17 | 1.09 ± 0.023 | 1.13 ± 0.12 |
| E7EMS2 and related entries (UniProt P61916) | 0.921 ± 0.075 | 0.947 ± 0.011 | 0.893 ± 0.03 | 0.977 ± 0.029 | 0.888 ± 0.012 | 0.872 ± 0.06 |
| E9PBC1 and related entries (UniProt O95208) | 0.8724 ± 0.0021 | 0.931 ± 0.011 | 0.93 ± 0.054 | 0.918 ± 0.12 | 0.871 ± 0.07 | 0.856 ± 0.078 |
